Common to all, as to experiment: log2 fold change, soluble protein after heating vs DMSO (PISA); higher = thermal stabilisation; K562 cells, 10 uM, 30 min; active = over 0.2 and 3.5 SD of the protein, either way, in both replicates (recomputed)
Compound in experiment [1]: C1=CC=C(C=C1)[C@H](COC2=CC3=C(C=C2)NC(=O)N3)NC(=O)C4=CC=CN(C4=O)CC5=CC(=C(C=C5)F)F
The procedure, abridged:
(§1)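 Soluble protein was defined as the supernatant after 21,000xg for 90 min. It came from K562 cells at 2×10^6 cells/mL given 10 μM compound for 30 min, heated in aliquots for 3 min across 48°C-58°C, pooled, and extracted in PBS with 0.5% NP-40 at 4°C, and was quantified by TMTpro 16plex LC-MS/MS with equalised channel sums. Thermal stability against control samples, from duplicates, is reported as log2 fold change.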

Sequences of proteins named here, by UniProt entry; tags and fusion partners are left off. A change or cut given only in a name is not applied to a line headed by its entry.
UniProt P09417: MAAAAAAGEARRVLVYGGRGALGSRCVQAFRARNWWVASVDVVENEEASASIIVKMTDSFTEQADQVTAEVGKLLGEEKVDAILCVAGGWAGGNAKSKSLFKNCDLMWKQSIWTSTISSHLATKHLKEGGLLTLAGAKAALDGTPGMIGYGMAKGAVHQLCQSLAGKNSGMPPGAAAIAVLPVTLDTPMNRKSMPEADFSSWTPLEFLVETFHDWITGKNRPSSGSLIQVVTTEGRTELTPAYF
UniProt Q9Y6I8: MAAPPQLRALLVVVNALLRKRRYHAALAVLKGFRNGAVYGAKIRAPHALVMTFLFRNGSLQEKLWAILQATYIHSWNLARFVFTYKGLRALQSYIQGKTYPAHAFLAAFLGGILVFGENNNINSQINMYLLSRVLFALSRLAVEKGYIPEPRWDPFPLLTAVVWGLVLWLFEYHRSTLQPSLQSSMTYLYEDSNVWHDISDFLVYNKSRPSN
UniProt Q93096: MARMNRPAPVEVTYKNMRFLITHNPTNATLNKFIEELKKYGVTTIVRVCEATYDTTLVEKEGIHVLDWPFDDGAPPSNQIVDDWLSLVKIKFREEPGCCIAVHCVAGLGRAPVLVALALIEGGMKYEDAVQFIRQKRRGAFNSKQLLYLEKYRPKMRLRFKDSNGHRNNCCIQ
UniProt Q53H96: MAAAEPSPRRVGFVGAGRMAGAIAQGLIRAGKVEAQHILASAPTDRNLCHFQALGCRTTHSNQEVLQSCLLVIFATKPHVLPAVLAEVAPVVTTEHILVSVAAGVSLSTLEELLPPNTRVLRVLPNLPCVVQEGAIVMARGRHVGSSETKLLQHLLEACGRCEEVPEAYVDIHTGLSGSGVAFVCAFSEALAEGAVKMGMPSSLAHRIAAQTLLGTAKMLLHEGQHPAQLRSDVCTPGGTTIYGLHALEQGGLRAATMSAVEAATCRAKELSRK
UniProt Q9Y617: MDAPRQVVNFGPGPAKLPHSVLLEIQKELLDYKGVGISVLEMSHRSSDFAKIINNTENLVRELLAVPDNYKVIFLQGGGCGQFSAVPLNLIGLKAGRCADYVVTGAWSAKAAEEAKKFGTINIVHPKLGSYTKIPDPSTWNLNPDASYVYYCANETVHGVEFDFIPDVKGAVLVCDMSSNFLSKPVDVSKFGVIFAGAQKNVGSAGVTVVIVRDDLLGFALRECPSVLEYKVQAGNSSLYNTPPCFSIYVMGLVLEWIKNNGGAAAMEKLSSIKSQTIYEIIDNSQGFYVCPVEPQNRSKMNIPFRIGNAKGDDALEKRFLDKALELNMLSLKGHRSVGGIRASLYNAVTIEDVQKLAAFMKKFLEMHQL
UniProt P17980, whole entry, looked up: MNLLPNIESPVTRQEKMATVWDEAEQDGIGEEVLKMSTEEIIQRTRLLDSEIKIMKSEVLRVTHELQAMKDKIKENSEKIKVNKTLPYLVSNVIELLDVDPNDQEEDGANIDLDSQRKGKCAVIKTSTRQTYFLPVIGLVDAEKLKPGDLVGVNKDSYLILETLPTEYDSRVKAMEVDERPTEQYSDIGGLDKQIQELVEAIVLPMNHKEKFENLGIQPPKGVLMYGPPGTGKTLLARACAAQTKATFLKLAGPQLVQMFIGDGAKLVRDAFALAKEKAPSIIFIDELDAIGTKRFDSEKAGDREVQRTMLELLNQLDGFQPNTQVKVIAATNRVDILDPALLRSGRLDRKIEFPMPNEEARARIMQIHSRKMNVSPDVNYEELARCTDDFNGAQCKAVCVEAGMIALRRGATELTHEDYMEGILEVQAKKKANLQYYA
UniProt Q969U7: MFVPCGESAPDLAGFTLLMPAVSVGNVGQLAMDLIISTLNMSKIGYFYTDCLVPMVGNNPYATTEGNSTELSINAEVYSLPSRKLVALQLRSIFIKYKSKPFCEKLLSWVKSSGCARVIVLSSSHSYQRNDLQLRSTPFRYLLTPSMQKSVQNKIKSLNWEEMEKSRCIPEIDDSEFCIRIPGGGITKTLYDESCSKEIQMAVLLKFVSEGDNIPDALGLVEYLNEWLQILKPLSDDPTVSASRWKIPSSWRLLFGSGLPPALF
UniProt P26599: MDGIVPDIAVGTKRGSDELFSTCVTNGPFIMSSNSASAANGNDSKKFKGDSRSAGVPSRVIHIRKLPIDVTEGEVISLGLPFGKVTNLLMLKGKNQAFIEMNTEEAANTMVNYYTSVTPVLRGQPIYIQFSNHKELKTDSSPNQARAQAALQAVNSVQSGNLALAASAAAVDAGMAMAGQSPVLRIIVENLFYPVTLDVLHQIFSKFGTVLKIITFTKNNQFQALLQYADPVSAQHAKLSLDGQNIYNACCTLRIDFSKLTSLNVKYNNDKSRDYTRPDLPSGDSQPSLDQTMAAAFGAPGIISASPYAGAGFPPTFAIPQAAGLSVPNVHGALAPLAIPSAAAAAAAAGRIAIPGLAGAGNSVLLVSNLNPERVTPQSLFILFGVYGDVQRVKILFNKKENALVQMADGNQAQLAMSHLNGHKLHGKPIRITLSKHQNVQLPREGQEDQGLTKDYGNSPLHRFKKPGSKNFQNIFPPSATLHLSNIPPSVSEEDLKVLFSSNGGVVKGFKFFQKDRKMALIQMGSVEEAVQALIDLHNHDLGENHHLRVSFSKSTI
UniProt Q15274: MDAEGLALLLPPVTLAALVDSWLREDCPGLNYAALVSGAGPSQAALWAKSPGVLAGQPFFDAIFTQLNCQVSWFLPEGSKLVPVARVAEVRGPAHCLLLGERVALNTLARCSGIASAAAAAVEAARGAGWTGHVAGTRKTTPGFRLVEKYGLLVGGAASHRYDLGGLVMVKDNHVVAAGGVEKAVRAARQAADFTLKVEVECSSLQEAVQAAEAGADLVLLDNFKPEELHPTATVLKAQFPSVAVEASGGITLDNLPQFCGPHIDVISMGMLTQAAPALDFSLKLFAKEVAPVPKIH
UniProt P49721: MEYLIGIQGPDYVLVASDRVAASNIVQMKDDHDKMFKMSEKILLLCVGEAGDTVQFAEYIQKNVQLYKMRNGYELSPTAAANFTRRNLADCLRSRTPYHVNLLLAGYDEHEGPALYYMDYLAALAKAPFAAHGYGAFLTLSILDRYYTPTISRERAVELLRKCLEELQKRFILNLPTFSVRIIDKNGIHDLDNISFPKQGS
UniProt Q06323: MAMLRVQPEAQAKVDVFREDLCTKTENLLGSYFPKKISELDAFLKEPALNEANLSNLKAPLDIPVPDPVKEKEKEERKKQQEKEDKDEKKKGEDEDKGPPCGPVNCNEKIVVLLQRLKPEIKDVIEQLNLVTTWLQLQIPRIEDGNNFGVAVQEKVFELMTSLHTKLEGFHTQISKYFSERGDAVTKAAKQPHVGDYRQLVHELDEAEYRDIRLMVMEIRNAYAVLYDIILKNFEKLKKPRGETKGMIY
UniProt P17706: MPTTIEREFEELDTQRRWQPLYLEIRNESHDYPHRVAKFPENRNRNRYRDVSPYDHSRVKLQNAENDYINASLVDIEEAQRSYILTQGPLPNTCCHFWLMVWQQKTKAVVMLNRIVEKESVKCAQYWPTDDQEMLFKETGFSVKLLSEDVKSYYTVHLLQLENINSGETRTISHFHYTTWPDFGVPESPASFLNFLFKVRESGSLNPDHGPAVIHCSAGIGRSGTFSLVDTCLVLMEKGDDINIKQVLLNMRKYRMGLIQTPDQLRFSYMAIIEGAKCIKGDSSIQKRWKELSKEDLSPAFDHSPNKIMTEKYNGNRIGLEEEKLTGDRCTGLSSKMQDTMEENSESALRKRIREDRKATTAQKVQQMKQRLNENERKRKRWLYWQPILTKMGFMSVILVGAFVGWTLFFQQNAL
UniProt Q9NRG1: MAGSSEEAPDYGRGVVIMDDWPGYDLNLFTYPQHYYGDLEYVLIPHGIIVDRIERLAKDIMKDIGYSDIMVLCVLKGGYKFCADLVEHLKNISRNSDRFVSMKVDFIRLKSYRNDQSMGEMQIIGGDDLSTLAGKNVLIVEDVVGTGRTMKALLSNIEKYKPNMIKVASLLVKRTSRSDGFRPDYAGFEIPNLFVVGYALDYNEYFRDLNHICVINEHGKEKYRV
UniProt Q92530: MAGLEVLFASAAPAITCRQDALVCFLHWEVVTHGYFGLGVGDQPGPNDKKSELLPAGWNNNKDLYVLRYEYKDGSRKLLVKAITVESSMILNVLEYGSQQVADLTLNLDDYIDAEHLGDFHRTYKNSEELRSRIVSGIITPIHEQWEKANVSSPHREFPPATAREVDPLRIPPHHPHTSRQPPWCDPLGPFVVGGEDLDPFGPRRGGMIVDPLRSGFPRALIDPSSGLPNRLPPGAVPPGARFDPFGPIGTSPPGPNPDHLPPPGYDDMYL
UniProt P53801: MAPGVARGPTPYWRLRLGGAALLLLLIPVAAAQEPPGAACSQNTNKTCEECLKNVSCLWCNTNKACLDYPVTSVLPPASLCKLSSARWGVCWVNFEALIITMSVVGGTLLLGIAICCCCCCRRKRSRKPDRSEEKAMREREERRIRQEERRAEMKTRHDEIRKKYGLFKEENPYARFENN
UniProt P28066: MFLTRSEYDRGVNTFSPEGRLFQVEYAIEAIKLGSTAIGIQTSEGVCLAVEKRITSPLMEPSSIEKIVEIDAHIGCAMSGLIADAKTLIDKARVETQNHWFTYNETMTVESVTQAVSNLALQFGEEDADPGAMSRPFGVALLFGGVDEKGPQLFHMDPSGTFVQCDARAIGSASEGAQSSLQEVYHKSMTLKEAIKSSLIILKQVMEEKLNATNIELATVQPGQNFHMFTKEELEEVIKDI
UniProt Q05209: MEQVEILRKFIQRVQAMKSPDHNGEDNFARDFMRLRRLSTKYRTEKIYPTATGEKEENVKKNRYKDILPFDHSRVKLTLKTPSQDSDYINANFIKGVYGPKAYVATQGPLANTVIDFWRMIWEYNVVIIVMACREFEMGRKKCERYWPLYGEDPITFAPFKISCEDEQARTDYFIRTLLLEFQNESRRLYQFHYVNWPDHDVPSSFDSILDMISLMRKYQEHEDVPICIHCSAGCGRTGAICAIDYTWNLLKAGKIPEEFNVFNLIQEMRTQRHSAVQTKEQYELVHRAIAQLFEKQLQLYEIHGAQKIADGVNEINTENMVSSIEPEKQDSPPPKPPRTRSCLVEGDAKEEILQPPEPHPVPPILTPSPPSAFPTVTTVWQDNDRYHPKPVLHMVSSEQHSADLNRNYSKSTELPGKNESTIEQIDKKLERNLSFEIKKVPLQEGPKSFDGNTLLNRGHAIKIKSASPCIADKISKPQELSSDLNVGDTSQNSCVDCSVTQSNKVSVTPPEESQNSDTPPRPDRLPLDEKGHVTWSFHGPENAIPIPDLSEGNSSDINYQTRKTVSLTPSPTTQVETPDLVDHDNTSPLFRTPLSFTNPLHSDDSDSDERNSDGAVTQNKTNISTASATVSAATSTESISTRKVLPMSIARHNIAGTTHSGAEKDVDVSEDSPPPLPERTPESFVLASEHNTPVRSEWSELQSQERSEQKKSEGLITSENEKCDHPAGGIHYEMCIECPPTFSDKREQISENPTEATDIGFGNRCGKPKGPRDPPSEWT
UniProt P06454: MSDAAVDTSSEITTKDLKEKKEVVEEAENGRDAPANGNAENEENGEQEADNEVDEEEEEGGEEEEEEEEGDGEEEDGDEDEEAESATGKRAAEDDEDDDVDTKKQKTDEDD
UniProt Q05397, whole entry, looked up: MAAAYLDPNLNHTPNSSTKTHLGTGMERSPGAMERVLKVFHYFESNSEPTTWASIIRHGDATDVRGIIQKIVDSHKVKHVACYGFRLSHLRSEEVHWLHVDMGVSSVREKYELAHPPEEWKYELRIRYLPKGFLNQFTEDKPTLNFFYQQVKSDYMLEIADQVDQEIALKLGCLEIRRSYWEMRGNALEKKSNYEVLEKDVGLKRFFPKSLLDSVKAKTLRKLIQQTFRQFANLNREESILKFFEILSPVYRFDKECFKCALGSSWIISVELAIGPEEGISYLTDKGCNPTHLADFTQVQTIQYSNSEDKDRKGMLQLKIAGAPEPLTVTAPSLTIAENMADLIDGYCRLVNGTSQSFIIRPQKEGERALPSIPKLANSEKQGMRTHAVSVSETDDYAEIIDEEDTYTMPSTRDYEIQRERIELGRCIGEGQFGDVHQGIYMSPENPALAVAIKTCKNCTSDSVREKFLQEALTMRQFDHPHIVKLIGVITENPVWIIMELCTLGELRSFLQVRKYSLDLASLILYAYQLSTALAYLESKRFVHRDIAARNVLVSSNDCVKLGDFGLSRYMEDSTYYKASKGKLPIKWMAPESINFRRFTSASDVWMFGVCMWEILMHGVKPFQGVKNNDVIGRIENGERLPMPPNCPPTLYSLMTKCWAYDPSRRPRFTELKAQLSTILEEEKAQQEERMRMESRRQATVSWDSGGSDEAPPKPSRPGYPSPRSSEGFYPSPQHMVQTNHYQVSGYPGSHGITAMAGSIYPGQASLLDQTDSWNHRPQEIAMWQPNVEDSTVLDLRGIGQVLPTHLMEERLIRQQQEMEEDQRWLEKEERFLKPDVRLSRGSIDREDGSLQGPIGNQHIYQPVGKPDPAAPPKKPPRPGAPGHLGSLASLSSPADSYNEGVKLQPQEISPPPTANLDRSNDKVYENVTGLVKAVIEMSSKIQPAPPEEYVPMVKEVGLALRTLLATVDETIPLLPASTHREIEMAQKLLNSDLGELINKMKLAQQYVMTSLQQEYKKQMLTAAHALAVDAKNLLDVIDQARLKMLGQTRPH

Compound in experiment [2]: CC1=C(SC2=C1C(=N[C@H](C3=NN=C(N32)C)CC(=O)N)C4=CC=C(C=C4)Cl)C
The procedure, abridged: as §1

Compound in experiment [3]: CC1=C2C(=CC=C1)N=C(N(C2=O)C3=CC=CC=C3C)CN4C=NC5=C(N=CN=C54)N
The procedure, abridged: as §1

Compound in experiment [4]: Cc1sc2c(c1C)C(c1ccc(Cl)cc1)=N[C@@H](CC(=O)OC(C)(C)C)c1nnc(C)n1-2
The procedure, abridged:
as §1

Compound in experiment [5]: c1ccc([C@@H]2C[C@H]2NC2CCNCC2)cc1
The procedure, abridged: as §1

The other results are listed elsewhere or left out.

Consider QDPR (UniProt P09417), for which the log2 fold change in experiment [1] was inactive: 0.015; in experiment [2], inactive: 0.002; in experiment [3], inactive: -0.012; in experiment [4] it was inactive: 0.032; in experiment [5], inactive: 0.095.
For PTGES2 (UniProt Q9H7Z7) the same measures were inactive: 0.028, inactive: -0.026, inactive: 0.03, inactive: 0.001 and inactive: 0.092.
For PXMP4 (UniProt Q9Y6I8), in that order: inactive: 0.013, inactive: -0.091, inactive: 0.09, inactive: -0.087 and inactive: 0.074.
For PTP4A1 (UniProt Q93096), in that order: inactive: -0.002, inactive: 0.109, inactive: 0.037, inactive: 0.001 and inactive: -0.031.
Take PYCR3 (UniProt Q53H96): the log2 fold change in experiment [1] was inactive: -0.035; in experiment [2], inactive: 0.053; in experiment [3], inactive: -0.021; in experiment [4], inactive: 0.002; in experiment [5], inactive: -0.009.
For PSAT1 (UniProt Q9Y617) the same measures were inactive: 0.008, inactive: 0.016, inactive: -0.018, inactive: -0.005 and inactive: 0.037.
For PSMC3 (UniProt P17980), in that order: inactive: 0.014, inactive: -0.083, inactive: -0.058, inactive: 0 and inactive: 0.
For PWP2 (UniProt Q15269), in that order: inactive: 0.019, inactive: -0.053, inactive: -0.05, inactive: 0.087 and inactive: 0.02.
For the target PSMG2 (UniProt Q969U7), the log2 fold change in experiment [1] was inactive: 0.014; in experiment [2] it was inactive: 0.004; in experiment [3] it was inactive: 0.027; in experiment [4], inactive: -0.022; in experiment [5], inactive: 0.013.
For PUS3 (UniProt Q9BZE2), in that order: inactive: -0.072, inactive: 0.107, inactive: 0.088, inactive: -0.005 and inactive: -0.056.
Turning to PTBP1 (UniProt P26599), the log2 fold change is inactive: 0.044 in experiment [1]; inactive: 0.026 in experiment [2]; inactive: -0.018 in experiment [3]; inactive: -0.051 in experiment [4]; inactive: -0.017 in experiment [5].
On to PTCD3 (UniProt Q96EY7), for which the log2 fold change was inactive: 0.03 in experiment [1]; inactive: -0.019 in experiment [2]; inactive: 0.009 in experiment [3]; inactive: 0.027 in experiment [4]; inactive: -0.002 in experiment [5].
For PTGR2 (UniProt Q8N8N7), in that order: inactive: 0.004, inactive: 0.055, active: 0.581, inactive: -0.043 and inactive: -0.091.
QPRT (UniProt Q15274): the log2 fold change in experiment [1] was inactive: -0.022; in experiment [2] it was inactive: 0.002; in experiment [3] it was inactive: 0.013; in experiment [4], inactive: -0.029; in experiment [5], inactive: -0.013.
For PSMB2 (UniProt P49721) the same measures were inactive: 0.029, inactive: 0.006, inactive: 0.016, inactive: -0.068 and inactive: 0.015.
Turning to PSME1 (UniProt Q06323), the log2 fold change in experiment [1] is inactive: -0.018; in experiment [2] it was inactive: 0.025; in experiment [3], inactive: 0.036; in experiment [4] it was inactive: -0.029; in experiment [5] it was inactive: -0.025.
For PSMA2 (UniProt P25787), in that order: inactive: 0.045, inactive: -0.005, inactive: -0.044, inactive: -0.006 and inactive: 0.02.
For PTPN2 (UniProt P17706) the same measures were inactive: -0.094, inactive: 0.037, inactive: 0.116, inactive: 0.002 and inactive: 0.034.
For PRTFDC1 (UniProt Q9NRG1), in that order: inactive: 0.041, inactive: 0.02, inactive: 0.004, inactive: -0.027 and inactive: -0.003.
As to PSMF1 (UniProt Q92530), the log2 fold change was inactive: 0.033 in experiment [1]; inactive: 0.059 in experiment [2]; inactive: 0.106 in experiment [3]; inactive: 0.023 in experiment [4]; inactive: 0.049 in experiment [5].
For PTTG1IP (UniProt P53801) the same measures were inactive: 0.149, inactive: -0.055, inactive: -0.134, inactive: 0.04 and inactive: 0.084.
For PSMA5 (UniProt P28066), in that order: inactive: 0.037, inactive: -0.001, inactive: -0.027, inactive: 0.011 and inactive: 0.029.
Consider PTPN12 (UniProt Q05209), for which the log2 fold change in experiment [1] was inactive: 0.035; in experiment [2] it was inactive: 0.034; in experiment [3] it was inactive: 0.091; in experiment [4] it was inactive: 0.024; in experiment [5] it was inactive: 0.015.
With PTMA (UniProt P06454), the log2 fold change in experiment [1] is inactive: 0.029; in experiment [2], inactive: 0.017; in experiment [3], inactive: -0.105; in experiment [4], inactive: -0.166; in experiment [5], inactive: -0.009.
For PTK2 (UniProt Q05397), in that order: inactive: 0.041, inactive: 0.034, inactive: 0.016, inactive: -0.008 and inactive: 0.

The record behind these values is the supplement of paper PMC10849652.
